The supplement of paper PMC10338343
± gives the standard deviation. This is a selection; strong and weak results do not stand in their true shares. Many entries were measured with a wide error.

Test system: MILI (PIWIL2) piRISC loaded with piRNA #1 (26 nt)
Test: pre-steady-state target cleavage rate (min^-1); MIWI and MILI are mouse PIWI proteins and EfPiwi is from a freshwater sponge; tags in brackets are library labels; higher = faster piRNA-guided slicing of the target
Conditions: guide: piRNA #1 5'p-UGAGGUAGUAGGUUGUAUAGUAUCCA; auxiliary factor: 500 nM mouse GTSF1
Method in brief: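 Reactions were run for 0–8 or 0–960 min at 33 °C in HEPES–potassium acetate buffer, combining 1 nM active affinity-purified piRISC with one synthetic guide, […] transcribed, DNA-blocked target RNA library and, in some cases, 500 nM GTSF1 partner protein. Sequencing of uncleaved targets followed, with normalisation to depth and to weakly complementary targets. Three trials were pooled, k3 was capped at 0.0001 min^-1, and the pre-steady-state cleavage rate was taken from a burst-and-steady-state fit.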
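Note: 1 nM active piRISC with 0.1 nM target library at 33 °C single turnover.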

Row | Sequence | pre-steady-state target cleavage rate
1 | GGAGAGCAUACUAUACAUCCUACUACCUCA | 0.335 ± 0.02
2 | GGAGAGGAAACUAUACUACCUACUACCUCA | 0.239 ± 0.025
3 | GGAGACGAUACUAUACAACCUACUAGCACA | 0.00848 ± 0.0055
4 | GGAGACGAUGACUAUACAACCUACUACCUCA | 0.151 ± 0.02
5 | GGAGACCUUAUAUACAACCUACUACCUCA | 0.0314 ± 0.0072
6 | GGAGACCUAUGAUUACAACCUACUUGGUCA | 0.00021 ± 0.02
7 | GGAGACCUUUCUAUACAUCCUACUACCUCA | 0.158 ± 0.013
8 | GGAGACCUAUGAUAUGUUCCUCACUACCUCA | 0.000115 ± 0.015
9 | GGAGACCUAACUAUACAACUCUACUACCUCA | 0.000134 ± 0.046
10 | GGAGACCUAACUAUACAACCUACUACCAUCA | 0.261 ± 0.038
11 | GGAGACCUAUCUACACAACCUACUACCUCA | 0.072 ± 0.0099
12 | GGAGAGGAUACUAUACAACCUACUACCCUCA | 0.11 ± 0.017
13 | GGAGAGGAUACUAUACUAGCUACUACCUCA | 0.113 ± 0.011
14 | GGAGACCUAAGUAUUCAACCUACUACCUCA | 0.0617 ± 0.0092
15 | GGAGACCUAUGAUAUGUUCCUAACUACCUCA | 0.000101 ± 0.025
16 | GGAGACCUUACUAUACAACCUACUUGGUCA | 0.000786 ± 0.0067
17 | GGAGAGGAUACUAUACUACCUACUACCUCA | 0.173 ± 0.011
18 | GGAGACCUAUGAUAACAACCUACUUGGAGA [g7:g16:cont:t1A] | 0.000301 ± 0.015
19 | GGAGACCUUACUAUACAUCCUACUACCUGA | 0.195 ± 0.033
20 | GGAGACCUAUGAUAUCUACCUACUACGUCA | < 0.0001
21 | GGAGACCUAUGAUAUGUACCUUCAACCUCA | < 0.0001
22 | GGAGACCUAUGAUAUGUACCUCACUACCUCA | 0.000103 ± 0.026
23 | GGAGACCUUACUUACAACCUACUACCUCA | 0.0198 ± 0.0056
24 | GGAGACCUAUGAUAUGUACCUAGUACCACA | 0.00024 ± 0.016

Single entries from the results shown:
Value for GGAGACCUUACUUACAACCUACUACCUCA under pre-steady-state target cleavage rate: 0.0198 ± 0.0056
Value for GGAGACCUAAGUAUUCAACCUACUACCUCA under pre-steady-state target cleavage rate: 0.0617 ± 0.0092
